Results as given in publication PMC4031160.
These are yes or no findings as the source states them, for the method shown. Binding seen in cells or lysates may run through a third protein. Some entries that bind do so weakly or less than the wild type.

Amino acid sequences for entries named in this document (tags omitted).
UniProt P24860: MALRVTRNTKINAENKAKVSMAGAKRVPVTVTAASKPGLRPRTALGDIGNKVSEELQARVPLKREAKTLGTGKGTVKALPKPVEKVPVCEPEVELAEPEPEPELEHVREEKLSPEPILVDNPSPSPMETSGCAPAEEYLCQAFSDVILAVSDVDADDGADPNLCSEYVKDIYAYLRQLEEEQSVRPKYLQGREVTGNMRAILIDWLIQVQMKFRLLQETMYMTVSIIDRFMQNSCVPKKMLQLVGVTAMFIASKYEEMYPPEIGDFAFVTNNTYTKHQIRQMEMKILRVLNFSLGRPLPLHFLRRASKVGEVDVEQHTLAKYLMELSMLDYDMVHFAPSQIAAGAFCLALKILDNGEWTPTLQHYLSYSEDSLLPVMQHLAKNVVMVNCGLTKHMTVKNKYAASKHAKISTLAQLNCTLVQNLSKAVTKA
UniProt P11440: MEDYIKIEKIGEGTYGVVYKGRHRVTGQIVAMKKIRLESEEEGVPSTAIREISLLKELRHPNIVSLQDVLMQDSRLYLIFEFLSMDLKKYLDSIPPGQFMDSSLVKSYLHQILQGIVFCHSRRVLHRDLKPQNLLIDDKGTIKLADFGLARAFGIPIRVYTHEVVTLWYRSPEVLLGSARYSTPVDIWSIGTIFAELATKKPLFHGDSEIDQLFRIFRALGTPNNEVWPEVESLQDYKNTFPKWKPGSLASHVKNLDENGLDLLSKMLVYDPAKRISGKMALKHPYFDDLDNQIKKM

Target: cyclin B1 (mouse (endogenous in embryonic liver)) (UniProt P24860)
Experiment: co-IP; endogenous proteins in total lysates (100-200 ug) of mouse embryonic liver tissue (E11.5 and E15.5) harvested 0 and 16 h after IR of the pregnant mice; 1-2 ul primary antibody, protein G sepharose, 3 to 4 washes, Western blot

Row | Substance | binding
1 | Cdk1 (from UniProt P11440 1-297) (enzyme) | binds
2 | Cdk2 (from UniProt P97377 1-346) (enzyme) | binds
